Experimental findings from publication PMC10789646 are described below.

Sequences of proteins named here, by UniProt entry; tags and fusion partners are left off.
UniProt P55201: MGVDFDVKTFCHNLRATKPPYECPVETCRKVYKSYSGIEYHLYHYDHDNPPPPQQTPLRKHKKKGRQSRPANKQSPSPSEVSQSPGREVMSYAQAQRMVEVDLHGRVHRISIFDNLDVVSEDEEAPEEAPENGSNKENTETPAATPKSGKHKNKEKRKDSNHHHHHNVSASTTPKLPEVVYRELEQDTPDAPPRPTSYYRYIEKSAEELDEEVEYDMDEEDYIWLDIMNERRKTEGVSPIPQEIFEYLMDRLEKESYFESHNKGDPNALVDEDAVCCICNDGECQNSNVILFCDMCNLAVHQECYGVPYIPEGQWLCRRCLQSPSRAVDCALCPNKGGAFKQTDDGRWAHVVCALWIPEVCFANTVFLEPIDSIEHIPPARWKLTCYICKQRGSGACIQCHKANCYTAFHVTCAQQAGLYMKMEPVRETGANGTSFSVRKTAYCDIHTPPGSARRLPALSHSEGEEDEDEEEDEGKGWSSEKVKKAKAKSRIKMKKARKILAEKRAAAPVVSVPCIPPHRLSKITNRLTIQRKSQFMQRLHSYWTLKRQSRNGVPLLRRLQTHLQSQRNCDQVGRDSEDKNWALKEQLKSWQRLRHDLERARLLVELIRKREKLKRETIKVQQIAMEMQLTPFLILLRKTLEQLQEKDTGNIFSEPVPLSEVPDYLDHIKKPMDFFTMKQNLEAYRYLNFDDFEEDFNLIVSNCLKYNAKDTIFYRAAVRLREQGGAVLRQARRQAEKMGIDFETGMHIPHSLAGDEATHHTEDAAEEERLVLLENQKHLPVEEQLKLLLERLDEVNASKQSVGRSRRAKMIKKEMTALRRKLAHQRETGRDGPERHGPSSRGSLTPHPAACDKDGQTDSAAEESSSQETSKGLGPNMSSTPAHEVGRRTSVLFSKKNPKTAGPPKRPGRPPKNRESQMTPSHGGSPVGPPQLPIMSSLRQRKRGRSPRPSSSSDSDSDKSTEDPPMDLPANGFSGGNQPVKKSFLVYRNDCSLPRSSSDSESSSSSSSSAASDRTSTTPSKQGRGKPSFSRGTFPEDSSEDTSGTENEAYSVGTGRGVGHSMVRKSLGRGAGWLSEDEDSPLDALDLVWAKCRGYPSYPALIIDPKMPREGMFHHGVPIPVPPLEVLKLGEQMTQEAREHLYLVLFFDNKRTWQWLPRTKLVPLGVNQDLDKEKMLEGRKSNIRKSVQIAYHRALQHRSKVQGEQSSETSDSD

In this assay the target is T1, Myc-tagged ILF3 (UniProt Q12906).
T1 sequence: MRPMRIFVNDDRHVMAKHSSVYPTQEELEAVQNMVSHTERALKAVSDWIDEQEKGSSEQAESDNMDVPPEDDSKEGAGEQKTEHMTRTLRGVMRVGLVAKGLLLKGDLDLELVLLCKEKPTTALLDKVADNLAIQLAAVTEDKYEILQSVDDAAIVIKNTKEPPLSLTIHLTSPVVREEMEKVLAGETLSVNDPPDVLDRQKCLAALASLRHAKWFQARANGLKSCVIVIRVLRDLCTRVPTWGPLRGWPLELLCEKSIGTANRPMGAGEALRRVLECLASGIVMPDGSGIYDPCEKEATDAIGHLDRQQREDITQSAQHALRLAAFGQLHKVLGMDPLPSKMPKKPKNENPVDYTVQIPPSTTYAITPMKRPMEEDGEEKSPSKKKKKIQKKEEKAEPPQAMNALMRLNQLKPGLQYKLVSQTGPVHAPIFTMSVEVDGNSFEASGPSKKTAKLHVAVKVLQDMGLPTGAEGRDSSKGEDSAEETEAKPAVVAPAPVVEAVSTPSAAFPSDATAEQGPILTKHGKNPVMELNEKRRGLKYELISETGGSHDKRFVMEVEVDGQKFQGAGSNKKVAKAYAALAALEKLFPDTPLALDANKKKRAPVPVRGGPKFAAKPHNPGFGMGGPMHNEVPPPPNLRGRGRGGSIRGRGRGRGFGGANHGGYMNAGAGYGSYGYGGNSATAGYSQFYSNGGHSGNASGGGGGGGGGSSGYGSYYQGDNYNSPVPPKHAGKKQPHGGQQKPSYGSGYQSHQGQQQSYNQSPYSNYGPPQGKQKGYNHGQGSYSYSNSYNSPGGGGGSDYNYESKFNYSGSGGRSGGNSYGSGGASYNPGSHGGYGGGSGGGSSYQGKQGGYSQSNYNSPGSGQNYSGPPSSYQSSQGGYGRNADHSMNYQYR
The experiment in a line: co-IP; Huh-7 cells cotransfected with V5-BRPF1 and Myc-ILF3, trichostatin A treated; anti-V5 or anti-Myc on Dynabeads Protein G; with and without 5 μM PFI-4; Western blot. Background: A western blot detects proteins with antibodies after separation by electrophoresis.

These are yes or no findings as the source states them, for the method shown. Binding seen in cells or lysates may run through a third protein. Some results given as binding are weak or reduced against the parent protein; the word gives no strength. Where a sequence is shown, tags or fusion partners need not be part of it.

“V5-tagged BRPF1 (from UniProt P55201 1-1214)”: the binding entry is reported as “binds”.
